Assay results from the supplement of paper PMC10849652.
This is one part of the list.

Chains of the proteins cited; added tags and fusions are not shown. Lines headed by an entry give the natural chain unless they say otherwise; changes in a name come on top.
UniProt A6NFQ2: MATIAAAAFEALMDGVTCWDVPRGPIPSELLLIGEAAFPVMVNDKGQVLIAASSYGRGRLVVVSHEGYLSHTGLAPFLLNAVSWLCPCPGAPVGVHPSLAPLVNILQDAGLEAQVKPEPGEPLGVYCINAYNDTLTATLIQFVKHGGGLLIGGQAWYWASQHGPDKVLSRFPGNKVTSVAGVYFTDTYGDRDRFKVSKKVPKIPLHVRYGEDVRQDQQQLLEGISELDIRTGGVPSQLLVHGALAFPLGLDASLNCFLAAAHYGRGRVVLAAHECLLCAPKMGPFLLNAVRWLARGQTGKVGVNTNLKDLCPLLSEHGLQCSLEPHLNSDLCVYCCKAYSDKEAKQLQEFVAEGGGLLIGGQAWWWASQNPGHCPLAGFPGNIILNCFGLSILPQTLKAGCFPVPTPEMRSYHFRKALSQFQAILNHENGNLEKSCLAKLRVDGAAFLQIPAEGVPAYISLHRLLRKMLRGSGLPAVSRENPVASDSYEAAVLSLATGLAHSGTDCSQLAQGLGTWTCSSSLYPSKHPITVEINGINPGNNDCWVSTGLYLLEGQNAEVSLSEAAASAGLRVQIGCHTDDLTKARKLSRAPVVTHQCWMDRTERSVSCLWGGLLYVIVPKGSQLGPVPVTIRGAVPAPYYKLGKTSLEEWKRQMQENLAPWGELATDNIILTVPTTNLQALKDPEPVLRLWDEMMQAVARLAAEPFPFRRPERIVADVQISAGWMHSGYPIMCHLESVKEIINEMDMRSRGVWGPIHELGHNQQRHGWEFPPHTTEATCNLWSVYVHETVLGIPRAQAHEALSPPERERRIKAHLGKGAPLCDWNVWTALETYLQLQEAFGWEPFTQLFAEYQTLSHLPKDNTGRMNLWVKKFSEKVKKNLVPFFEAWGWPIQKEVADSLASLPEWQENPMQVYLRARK
UniProt Q13428: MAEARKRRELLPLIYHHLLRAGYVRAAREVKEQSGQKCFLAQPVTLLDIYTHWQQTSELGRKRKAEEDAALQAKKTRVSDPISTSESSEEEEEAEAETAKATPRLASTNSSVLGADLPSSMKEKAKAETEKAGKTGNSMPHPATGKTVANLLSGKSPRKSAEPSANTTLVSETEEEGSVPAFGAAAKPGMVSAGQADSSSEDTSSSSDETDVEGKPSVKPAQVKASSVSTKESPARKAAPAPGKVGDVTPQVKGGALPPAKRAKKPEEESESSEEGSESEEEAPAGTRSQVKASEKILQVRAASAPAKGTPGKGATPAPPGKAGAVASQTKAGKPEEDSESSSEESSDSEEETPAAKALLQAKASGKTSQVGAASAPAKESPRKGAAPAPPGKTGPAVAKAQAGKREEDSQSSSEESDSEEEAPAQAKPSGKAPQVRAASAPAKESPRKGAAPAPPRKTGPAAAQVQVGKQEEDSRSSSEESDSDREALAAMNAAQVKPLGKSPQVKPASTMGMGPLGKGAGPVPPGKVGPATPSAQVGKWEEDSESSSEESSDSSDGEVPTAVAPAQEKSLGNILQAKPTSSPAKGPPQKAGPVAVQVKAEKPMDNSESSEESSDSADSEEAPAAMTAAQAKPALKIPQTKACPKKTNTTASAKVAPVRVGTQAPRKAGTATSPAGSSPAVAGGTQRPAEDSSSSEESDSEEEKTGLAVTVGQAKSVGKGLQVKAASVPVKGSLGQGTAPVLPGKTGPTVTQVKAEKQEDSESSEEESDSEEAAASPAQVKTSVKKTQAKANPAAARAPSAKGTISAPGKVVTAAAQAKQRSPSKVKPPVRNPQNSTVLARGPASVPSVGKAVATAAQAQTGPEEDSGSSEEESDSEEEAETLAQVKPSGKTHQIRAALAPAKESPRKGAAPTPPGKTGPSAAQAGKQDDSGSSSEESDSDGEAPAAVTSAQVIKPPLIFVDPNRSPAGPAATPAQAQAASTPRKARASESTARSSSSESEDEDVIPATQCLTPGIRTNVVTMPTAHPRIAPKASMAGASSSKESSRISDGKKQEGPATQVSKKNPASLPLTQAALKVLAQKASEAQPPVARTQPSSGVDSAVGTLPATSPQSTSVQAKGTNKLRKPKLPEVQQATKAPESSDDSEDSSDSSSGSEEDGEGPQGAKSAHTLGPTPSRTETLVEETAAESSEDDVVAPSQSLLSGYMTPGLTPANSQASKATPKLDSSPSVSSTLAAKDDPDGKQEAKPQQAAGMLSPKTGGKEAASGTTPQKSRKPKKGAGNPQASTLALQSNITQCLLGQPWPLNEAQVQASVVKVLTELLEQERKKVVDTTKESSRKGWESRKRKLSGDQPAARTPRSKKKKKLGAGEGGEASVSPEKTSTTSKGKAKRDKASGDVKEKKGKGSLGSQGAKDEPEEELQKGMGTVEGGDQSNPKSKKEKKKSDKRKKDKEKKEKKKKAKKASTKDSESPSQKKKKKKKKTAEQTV
UniProt Q7L2K0: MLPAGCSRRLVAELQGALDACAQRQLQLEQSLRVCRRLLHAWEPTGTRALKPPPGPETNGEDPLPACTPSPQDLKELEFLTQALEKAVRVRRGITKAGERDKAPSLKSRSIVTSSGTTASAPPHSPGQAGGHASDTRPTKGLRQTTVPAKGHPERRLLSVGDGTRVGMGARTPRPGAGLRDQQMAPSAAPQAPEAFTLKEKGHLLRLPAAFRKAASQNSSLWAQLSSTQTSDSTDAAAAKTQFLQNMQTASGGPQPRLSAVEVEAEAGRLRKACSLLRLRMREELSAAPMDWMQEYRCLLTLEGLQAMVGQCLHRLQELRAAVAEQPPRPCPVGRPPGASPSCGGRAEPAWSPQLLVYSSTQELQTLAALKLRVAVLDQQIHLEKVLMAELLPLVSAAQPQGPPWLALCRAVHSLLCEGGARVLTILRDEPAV
UniProt P20226, whole entry, looked up: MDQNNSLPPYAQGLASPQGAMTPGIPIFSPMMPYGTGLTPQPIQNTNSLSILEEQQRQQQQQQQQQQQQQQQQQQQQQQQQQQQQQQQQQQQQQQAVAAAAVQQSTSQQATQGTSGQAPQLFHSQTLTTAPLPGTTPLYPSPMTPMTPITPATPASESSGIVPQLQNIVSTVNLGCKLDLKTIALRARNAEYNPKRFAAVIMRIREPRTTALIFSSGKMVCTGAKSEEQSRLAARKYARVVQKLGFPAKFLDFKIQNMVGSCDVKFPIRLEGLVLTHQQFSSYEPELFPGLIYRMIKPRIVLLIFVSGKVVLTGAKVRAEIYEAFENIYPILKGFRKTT
UniProt Q9HCD6: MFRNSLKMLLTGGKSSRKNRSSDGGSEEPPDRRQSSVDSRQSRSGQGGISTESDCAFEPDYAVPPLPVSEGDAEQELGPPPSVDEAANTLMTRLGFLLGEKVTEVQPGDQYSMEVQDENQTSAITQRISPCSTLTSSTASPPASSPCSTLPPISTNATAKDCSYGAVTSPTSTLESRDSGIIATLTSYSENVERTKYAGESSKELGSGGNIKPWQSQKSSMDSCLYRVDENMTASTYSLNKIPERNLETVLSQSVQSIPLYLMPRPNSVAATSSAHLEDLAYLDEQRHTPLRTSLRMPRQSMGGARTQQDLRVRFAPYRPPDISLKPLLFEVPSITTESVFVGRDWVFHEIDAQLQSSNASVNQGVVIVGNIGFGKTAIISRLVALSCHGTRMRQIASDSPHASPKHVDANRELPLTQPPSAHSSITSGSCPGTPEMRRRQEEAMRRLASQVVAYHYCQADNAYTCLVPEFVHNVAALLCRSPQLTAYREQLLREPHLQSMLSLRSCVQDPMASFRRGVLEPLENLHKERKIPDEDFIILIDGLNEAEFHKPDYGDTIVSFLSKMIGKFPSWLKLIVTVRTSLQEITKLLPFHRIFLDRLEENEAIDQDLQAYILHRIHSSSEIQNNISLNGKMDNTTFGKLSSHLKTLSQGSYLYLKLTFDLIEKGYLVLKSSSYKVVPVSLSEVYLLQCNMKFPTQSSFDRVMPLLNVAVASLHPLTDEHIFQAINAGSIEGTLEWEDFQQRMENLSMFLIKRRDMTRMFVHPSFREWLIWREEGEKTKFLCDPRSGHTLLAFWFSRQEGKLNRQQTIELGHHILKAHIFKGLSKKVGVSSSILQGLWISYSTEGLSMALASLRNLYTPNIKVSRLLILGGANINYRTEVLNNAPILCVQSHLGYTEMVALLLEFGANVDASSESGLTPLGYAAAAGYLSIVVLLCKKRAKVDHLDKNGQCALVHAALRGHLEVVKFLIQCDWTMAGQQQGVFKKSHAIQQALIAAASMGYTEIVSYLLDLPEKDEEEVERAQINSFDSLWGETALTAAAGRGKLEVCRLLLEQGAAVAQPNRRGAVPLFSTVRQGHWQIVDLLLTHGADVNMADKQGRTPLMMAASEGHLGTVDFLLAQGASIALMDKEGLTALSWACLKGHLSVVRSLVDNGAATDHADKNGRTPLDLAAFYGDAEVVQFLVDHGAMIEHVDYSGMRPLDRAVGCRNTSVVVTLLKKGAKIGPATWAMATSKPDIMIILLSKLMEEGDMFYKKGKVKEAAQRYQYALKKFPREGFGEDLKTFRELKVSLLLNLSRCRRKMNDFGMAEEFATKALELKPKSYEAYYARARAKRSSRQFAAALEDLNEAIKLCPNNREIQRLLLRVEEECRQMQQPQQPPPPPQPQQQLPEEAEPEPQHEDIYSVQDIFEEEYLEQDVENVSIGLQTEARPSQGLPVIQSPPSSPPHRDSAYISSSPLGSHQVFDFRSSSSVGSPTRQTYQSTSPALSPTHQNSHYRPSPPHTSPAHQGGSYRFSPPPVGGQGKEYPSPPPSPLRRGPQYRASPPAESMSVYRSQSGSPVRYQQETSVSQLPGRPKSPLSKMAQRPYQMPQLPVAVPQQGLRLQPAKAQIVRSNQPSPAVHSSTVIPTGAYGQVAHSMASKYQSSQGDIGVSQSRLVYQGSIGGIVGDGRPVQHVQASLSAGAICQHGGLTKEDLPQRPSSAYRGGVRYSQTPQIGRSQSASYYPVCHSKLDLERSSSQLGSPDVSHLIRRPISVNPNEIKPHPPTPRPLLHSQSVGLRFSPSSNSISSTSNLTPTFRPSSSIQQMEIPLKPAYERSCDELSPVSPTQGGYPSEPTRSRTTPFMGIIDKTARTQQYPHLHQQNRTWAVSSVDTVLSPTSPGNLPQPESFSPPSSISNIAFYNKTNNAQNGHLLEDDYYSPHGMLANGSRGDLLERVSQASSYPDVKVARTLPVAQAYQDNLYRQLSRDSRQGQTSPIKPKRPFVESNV
UniProt O43435: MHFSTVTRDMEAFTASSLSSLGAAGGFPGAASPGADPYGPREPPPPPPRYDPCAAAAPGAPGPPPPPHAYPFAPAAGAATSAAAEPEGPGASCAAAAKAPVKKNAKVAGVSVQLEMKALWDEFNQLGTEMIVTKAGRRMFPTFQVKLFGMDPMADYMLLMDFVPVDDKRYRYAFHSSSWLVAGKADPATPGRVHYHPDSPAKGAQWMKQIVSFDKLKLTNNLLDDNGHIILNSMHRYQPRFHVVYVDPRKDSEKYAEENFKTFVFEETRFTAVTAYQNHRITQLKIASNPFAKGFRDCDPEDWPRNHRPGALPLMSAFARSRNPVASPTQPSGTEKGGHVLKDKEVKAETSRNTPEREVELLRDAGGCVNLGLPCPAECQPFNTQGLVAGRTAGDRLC
UniProt Q01664: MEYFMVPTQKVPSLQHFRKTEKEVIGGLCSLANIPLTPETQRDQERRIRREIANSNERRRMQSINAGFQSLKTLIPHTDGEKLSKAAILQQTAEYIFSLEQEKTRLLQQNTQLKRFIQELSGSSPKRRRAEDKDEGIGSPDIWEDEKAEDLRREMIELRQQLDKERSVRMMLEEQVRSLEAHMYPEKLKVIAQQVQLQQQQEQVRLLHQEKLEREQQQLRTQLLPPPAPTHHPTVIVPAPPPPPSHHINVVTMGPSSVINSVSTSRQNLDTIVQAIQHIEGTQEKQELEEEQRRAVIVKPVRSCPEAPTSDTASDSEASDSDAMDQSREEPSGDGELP
UniProt Q8N4U5: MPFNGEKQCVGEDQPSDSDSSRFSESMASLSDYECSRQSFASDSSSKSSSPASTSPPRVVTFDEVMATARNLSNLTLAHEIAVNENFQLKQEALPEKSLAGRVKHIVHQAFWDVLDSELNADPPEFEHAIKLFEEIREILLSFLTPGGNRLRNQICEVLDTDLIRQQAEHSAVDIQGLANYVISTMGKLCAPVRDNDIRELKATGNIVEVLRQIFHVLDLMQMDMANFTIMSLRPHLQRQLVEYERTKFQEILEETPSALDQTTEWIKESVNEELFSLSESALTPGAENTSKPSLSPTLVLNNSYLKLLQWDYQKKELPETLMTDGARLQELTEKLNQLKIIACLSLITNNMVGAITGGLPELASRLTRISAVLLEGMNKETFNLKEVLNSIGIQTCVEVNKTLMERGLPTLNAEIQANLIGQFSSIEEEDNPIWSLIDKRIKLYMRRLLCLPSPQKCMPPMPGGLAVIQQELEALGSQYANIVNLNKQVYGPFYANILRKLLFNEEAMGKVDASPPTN

Key:
Assay in all cases: log2 fold change, soluble protein after heating vs DMSO (PISA); higher = thermal stabilisation; K562 lysate, 10 uM; active = over 0.2 and 3.5 SD of the protein, either way, in both replicates (recomputed)
[1] = compound: CN1CC[C@H](c2c(O)cc(O)c3c(=O)cc(-c4ccccc4Cl)oc23)[C@H](O)C1 [alvocidib]
Summary of the method: (§1)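 K562 pellets were dounce-homogenised in PBS pH 7.4 with 1 mM MgCl2, and the crude extract at 1 mg/mL protein was treated with 10 μM compound for 30 min. Aliquots were heated for 3 min across 48°C-58°C, pooled, and brought to 0.5% NP-40 at 4°C; soluble protein was the supernatant after 21,000xg for 90 min. Soluble protein was quantified by TMTpro 16plex LC-MS/MS with channel sums equalised, and reported as log2 fold change in thermal stability against DMSO controls, with values from duplicates.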

[2] = compound: CN1CCc2c(c3ccccc3n2Cc2ccc(C(=O)NO)cc2)C1 [Tubastatin A]
Summary of the method: as §1

[3] = compound: CNC(=O)C1=CC=CC=C1NC2=NC(=NC=C2Cl)NC3=C(C=C(C=C3)N4CCOCC4)OC
Summary of the method: as §1

[4] = compound: CNC(=O)c1ccc(Nc2ncc(C(F)(F)F)c(NCc3nccnc3N(C)S(C)(=O)=O)n2)cc1 [defactinib]
Summary of the method: as §1

[5] = compound: CNc1nc(-c2ccc3c(N)n[nH]c3c2)cc(N2C[C@@H](C(=O)NC3CCCCC3)CC[C@H]2C)n1
Summary of the method: as §1

[6] = compound: COC(=O)N[C@@H](C)CNc1nccc(-c2cn(C(C)C)nc2-c2cc(Cl)cc(NS(C)(=O)=O)c2F)n1 [encorafenib]
Summary of the method: as §1

[7] = compound: COC(=O)[C@H](CCSC)NC(=O)C1=C(C=C(C=C1)NC[C@H](CS)N)C2=CC=CC=C2
Summary of the method: as §1

[8] = compound: COc1cc(Nc2ncc3c(n2)-c2ccc(Cl)cc2C(c2c(F)cccc2OC)=NC3)ccc1C(=O)O [alisertib]
Summary of the method: as §1

[9] = compound: COc1cc2nc(-c3cc(F)ccc3O)nc(N[C@@H]3CNC[C@H]3C(C)(C)O)c2cc1OC
Summary of the method: as §1

[10] = compound: COc1cc2ncnc(Nc3ccc(F)c(Cl)c3)c2cc1OCCCN1CCOCC1 [gefitinib]
Summary of the method: as §1

[11] = compound: CS(=O)(=O)CCNCc1ccc(-c2ccc3ncnc(Nc4ccc(OCc5cccc(F)c5)c(Cl)c4)c3c2)o1 [lapatinib]
Summary of the method: as §1

[12] = compound: CS(=O)(=O)N1CCN(Cc2cc3nc(-c4cccc5[nH]ncc45)nc(N4CCOCC4)c3s2)CC1 [pictilisib]
Summary of the method: as §1

[13] = compound: C[C@@H](Oc1cc(-c2cnn(C3CCNCC3)c2)cnc1N)c1c(Cl)ccc(F)c1Cl [crizotinib]
Summary of the method: as §1

[14] = compound: C[C@H](C1=CC=C(C=C1)C(=O)NC2=C3C=CNC3=NC=C2)N
Summary of the method: as §1

[15] = compound: C[C@H](Nc1ncnc2nc[nH]c12)c1cc2cccc(Cl)c2c(=O)n1-c1ccccc1 [duvelisib]
Summary of the method: as §1

[16] = compound: Cc1cc(Nc2cc(CN3CCOCC3)c3nc(C)c(Cc4ccc(Cl)cc4F)n3n2)n[nH]1 [gandotinib]
Summary of the method: as §1

[17] = compound: Cc1cc(Nc2cc(N3CCN(C)CC3)nc(Sc3ccc(NC(=O)C4CC4)cc3)n2)n[nH]1 [tozasertib]
Summary of the method: as §1

[18] = compound: Cc1ccc(-n2nc(C(C)(C)C)cc2NC(=O)Nc2ccc(OCCN3CCOCC3)c3ccccc23)cc1 [doramapimod]
Summary of the method: as §1

[19] = compound: Cc1ccc(NC(=O)c2ccc(CN3CC[C@H](N(C)C)C3)c(C(F)(F)F)c2)cc1Nc1nccc(-c2cncnc2)n1 [bafetinib]
Summary of the method: as §1

[20] = compound: Cc1cccc(CC(=O)N2CCc3c2ccc(-c2cn(C)c4ncnc(N)c24)c3F)n1
Summary of the method: as §1

| Target | log2 fold change [1] | log2 fold change [2] | log2 fold change [3] | log2 fold change [4] | log2 fold change [5] | log2 fold change [6] | log2 fold change [7] | log2 fold change [8] | log2 fold change [9] | log2 fold change [10] | log2 fold change [11] | log2 fold change [12] | log2 fold change [13] | log2 fold change [14] | log2 fold change [15] | log2 fold change [16] | log2 fold change [17] | log2 fold change [18] | log2 fold change [19] | log2 fold change [20] |
| --- | --- | --- | --- | --- | --- | --- | --- | --- | --- | --- | --- | --- | --- | --- | --- | --- | --- | --- | --- | --- |
| TCAF2 (UniProt A6NFQ2) | inactive: -0.016 | inactive: -0.183 | inactive: -0.026 | inactive: 0.067 | inactive: -0.026 | inactive: 0.006 | inactive: 0.044 | inactive: 0.03 | inactive: -0.067 | inactive: -0.042 | inactive: 0.024 | inactive: -0.017 | inactive: -0.108 | inactive: -0.02 | inactive: 0.004 | inactive: -0.098 | inactive: 0.008 | inactive: -0.03 | inactive: -0.048 | inactive: 0.041 |
| TCOF1 isoform 4 (UniProt Q13428) | inactive: -0.029 | inactive: 0.04 | inactive: 0.005 | inactive: -0.002 | inactive: 0.076 | inactive: 0.009 | inactive: -0.071 | inactive: -0.002 | inactive: 0.005 | inactive: 0.012 | inactive: -0.018 | inactive: -0.014 | inactive: 0.024 | inactive: -0.075 | inactive: 0.005 | inactive: 0.044 | inactive: -0.003 | inactive: 0.002 | inactive: -0.032 | inactive: 0.02 |
| TEDC2 (UniProt Q7L2K0) | inactive: 0.063 | – | – | – | – | – | – | inactive: 0.046 | inactive: -0.173 | inactive: 0.014 | inactive: 0.008 | – | inactive: 0.05 | inactive: 0.014 | – | inactive: -0.087 | – | inactive: -0.129 | – | inactive: 0.05 |
| TBP (UniProt P20226) | inactive: -0.046 | inactive: -0.015 | inactive: 0.02 | – | inactive: 0.082 | inactive: -0.023 | inactive: 0.19 | inactive: 0.017 | inactive: 0.029 | inactive: 0.073 | inactive: -0.06 | inactive: -0.011 | inactive: -0.154 | inactive: -0.128 | inactive: 0.043 | inactive: 0.02 | inactive: -0.262 | inactive: 0.075 | inactive: -0.043 | inactive: 0.105 |
| TANC2 isoform 2 (UniProt Q9HCD6) | inactive: -0.022 | inactive: 0 | inactive: -0.038 | – | inactive: 0.235 | – | – | inactive: -0.171 | – | inactive: 0.228 | – | – | – | inactive: 0.057 | inactive: -0.317 | inactive: 0.031 | – | – | – | inactive: 0.13 |
| TENM4 (UniProt Q6N022) | inactive: 0.03 | – | – | – | – | – | – | – | inactive: 0.024 | – | inactive: -0.169 | inactive: -0.065 | inactive: -0.07 | inactive: 0.415 | – | inactive: -0.028 | – | inactive: -0.068 | inactive: -0.148 | inactive: -0.032 |
| TAZ (UniProt Q16635) | inactive: 0.093 | – | inactive: 0.187 | – | – | – | – | – | inactive: 0.006 | – | inactive: -0.01 | – | inactive: 0.065 | inactive: -0.448 | – | inactive: 0.294 | – | inactive: -0.09 | – | inactive: 0.026 |
| TBX1 isoform 3 (UniProt O43435) | inactive: -0.196 | – | – | inactive: -0.074 | – | inactive: 0.026 | inactive: -0.135 | – | – | – | – | inactive: -0.153 | – | inactive: -0.181 | – | inactive: -0.025 | inactive: 0.052 | – | inactive: -0.088 | inactive: -0.012 |
| TBCK (UniProt Q8TEA7) | inactive: 0.017 | inactive: 0.014 | inactive: -0.041 | – | inactive: 0.034 | inactive: 0.023 | inactive: 0.043 | inactive: -0.067 | inactive: 0.012 | inactive: 0.004 | inactive: -0.01 | inactive: -0.12 | inactive: -0.008 | inactive: 0.047 | inactive: -0.032 | inactive: -0.209 | inactive: 0.014 | inactive: 0.014 | inactive: 0.025 | inactive: -0.04 |
| TFAP4 (UniProt Q01664) | inactive: -0.037 | inactive: 0.135 | inactive: 0.133 | inactive: -0.066 | – | inactive: 0.156 | inactive: -0.108 | inactive: -0.106 | inactive: -0.097 | inactive: -0.096 | inactive: -0.05 | inactive: 0.022 | inactive: 0.009 | active: 0.477 | – | inactive: 0.033 | inactive: -0.05 | inactive: 0.017 | inactive: -0.214 | inactive: -0.217 |
| TCP11L2 (UniProt Q8N4U5) | inactive: -0.006 | inactive: -0.169 | inactive: -0.112 | inactive: -0.015 | – | inactive: 0.069 | inactive: 0.122 | – | – | – | – | – | – | inactive: -0.217 | – | inactive: 0.019 | inactive: -0.064 | – | – | inactive: 0.024 |

In a second layout: results already given.
Target	log2 fold change [1]	log2 fold change [2]	log2 fold change [3]	log2 fold change [4]	log2 fold change [5]	log2 fold change [6]	log2 fold change [7]	log2 fold change [8]	log2 fold change [9]	log2 fold change [10]	log2 fold change [11]	log2 fold change [12]	log2 fold change [13]	log2 fold change [14]	log2 fold change [15]	log2 fold change [16]	log2 fold change [17]	log2 fold change [18]	log2 fold change [19]	log2 fold change [20]
TBP (UniProt P20226)	inactive: -0.046	inactive: -0.015	inactive: 0.02	–	inactive: 0.082	inactive: -0.023	inactive: 0.19	inactive: 0.017	inactive: 0.029	inactive: 0.073	inactive: -0.06	inactive: -0.011	inactive: -0.154	inactive: -0.128	inactive: 0.043	inactive: 0.02	inactive: -0.262	inactive: 0.075	inactive: -0.043	inactive: 0.105
TANC2 isoform 2 (UniProt Q9HCD6)	inactive: -0.022	inactive: 0	inactive: -0.038	–	inactive: 0.235	–	–	inactive: -0.171	–	inactive: 0.228	–	–	–	inactive: 0.057	inactive: -0.317	inactive: 0.031	–	–	–	inactive: 0.13
